Measurements: the supplement of paper PMC3334620
Whole data set: some 33,000 sequences, median “E-score (-0.5 to 0.5)” near -0.0014, cut for the highest 2% near 0.25. This is one part of the list.

Target: T1, Cad1 (UniProt P24813)
T1 sequence: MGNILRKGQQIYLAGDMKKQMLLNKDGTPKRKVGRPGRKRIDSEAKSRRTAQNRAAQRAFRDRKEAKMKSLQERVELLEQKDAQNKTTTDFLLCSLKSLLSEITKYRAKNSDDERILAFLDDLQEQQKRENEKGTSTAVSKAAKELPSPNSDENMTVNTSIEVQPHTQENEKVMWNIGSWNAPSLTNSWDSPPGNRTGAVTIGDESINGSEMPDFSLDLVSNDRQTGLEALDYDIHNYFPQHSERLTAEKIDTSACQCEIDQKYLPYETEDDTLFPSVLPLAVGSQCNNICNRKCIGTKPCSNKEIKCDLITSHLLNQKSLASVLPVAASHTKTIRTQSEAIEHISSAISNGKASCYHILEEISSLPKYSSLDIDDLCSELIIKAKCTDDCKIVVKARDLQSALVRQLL
Assay: PBM E-score (8-mer binding enrichment) (E-score (-0.5 to 0.5)); higher = stronger / more preferred TF binding
Settings: protein concentration: 100 nM; construct: GST-full length
Outline: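 Detection of bound protein used fluorescent anti-GST, with scans normalised by masliner. The proteins were GST-tagged yeast transcription factors applied at about 100-200 nM to universal all-10-mer Agilent arrays made double-stranded by primer extension. Each ungapped eight-base word, pooled with its reverse complement, was scored with an E-score from the Universal PBM Analysis Suite.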

Sequence	PBM E-score
GTCCATGA	-0.313
CAGAAGGA	-0.289
AACCTAAG	-0.0375
AACTAGGG	-0.119
ACAAAAAA	0.161
CCCGCAAA	0.17
AAACAAAA	-0.0143
TACCTAGA	0.0238
CAGGAAAA	0.0524
CGCGAGAA	0.0165
CACTGTCA	0.0789
CTCGCCTA	-0.0736
CGGACCAC	0.0528
CATTTGTA	0.241
AAAGTTAC	0.0464
AGGGGCAT	-0.239
GGTATTAA	0.098
AGACTGAG	-0.057
AGCCCGCT	-0.137
CGACCATA	-0.0443
ATACGTCG	-0.00182
TACAAATA	0.185
AAAGACAT	-0.226
CGCCTGCA	-0.0131
ACGGACTG	-0.016

Sequence	PBM E-score
CGAACTAA	0.0987
AAAAACCA	0.039
GACGACGA	0.021
GGAAATCC	-0.00821
GCGATAAC	0.0347
CATGTGAG	-0.124
CTGATTGC	0.0638
GATACAGC	0.0704
GTCAGATA	-0.0227
ACGCTCAC	0.197
ATATCTAA	0.152
AAATCGGG	0.0578
CTCGGAGA	-0.0487
TCTTAAGA	0.0711
GCCCAACC	-0.0909
CAGACACG	-0.0273
ATATTGTC	0.223
CTCCAATC	0.0827
AAGAGCCT	-0.136
ATGCTAAG	-0.0463
AACGTGTG	-0.0106
AAGTGCCC	-0.108
CTATGGGA	-0.144
GACGATCC	0.0273
ACGCGGCG	0.112

Look-ups from the entries so far.
In PBM E-score, ACGCGGCG shows 0.112
In PBM E-score, GGAAATCC shows -0.00821
In PBM E-score, ATATCTAA shows 0.152
In PBM E-score, CTCGGAGA shows -0.0487
In PBM E-score, CTCCAATC shows 0.0827

The listing continues:

Sequence	PBM E-score
ACCTTTCA	0.0837
TGACGTCA	0.334
AAACCATG	-0.015
GTCCTAGA	-0.123
GAACACGC	0.0984
CTGCTGAC	0.275
CTAATCTA	0.0215
AGAACAGC	0.00791
ATCATAGC	0.0969
GAACTACC	-0.0676
CGGTTATC	-0.109
GGTAGATA	0.16
ATAAACAG	0.00806
CAATCACG	0.0999
TGTAAGAA	0.21
AATAATGG	0.128
TAACTAGA	0.0799
AACGACTA	0.112
AGAGACCA	-0.0203
TCCGGCAA	0.0992
CGAGGTAA	0.00901
CTTAGGTA	0.106
AACCCGCT	-0.244
ACTGAATA	0.0821
AAATACTT	0.177

Sequence	PBM E-score
GGCGTAAC	-0.137
ATGATACA	0.091
ACATACGC	-0.0912
AGTAGCAT	-0.0141
AAACTTGA	0.0474
ACGCACTC	-0.0595
AGTTGCAA	0.0789
AAGACTCA	-0.153
ACTTTTCT	0.0259
ATGCTGCA	0.0922
GCCCCCCA	-0.464
GATTGGCC	-0.00913
AAACAGTT	0.0189
ACTGCCGA	0.0319
CACACAAC	0.0484
GCTACAGC	-0.0901
TAAAGACA	-0.13
CCACCAAC	0.084
CAGGCTGA	-0.125
CGCCTCTC	-0.412
GAATGCTC	-0.0426
ATGACAAT	0.171
CTCATAAC	-0.0614
TCGCTACA	-0.399
ATGAATGC	0.103

Sequence	PBM E-score
ACCGGCGT	0.0885
CCCAGTCG	-0.236
AAACGTAC	0.0592
ATGCTACG	0.104
TCTCGTAA	0.118
GTATTCAC	0.115
CCGTGCTA	-0.163
ACTCAGCC	-0.0931
AATTTCTG	0.0718
AAATTTAA	0.118
GAGCATAA	0.077
ATACGTAG	0.00381
GTTCTGCA	0.0378
CAAGCGCA	0.262
CTTCTGAC	-0.197
CCATAGGC	-0.0478
ACGAGCTG	0.121
TGCTCCAA	0.0768
ACATGAAC	0.0635
ATCACAGG	-0.0203
TCCTTCCA	-0.151
CATTATTC	0.0711
ATCCTGCG	0.0649
ACACAAGG	-0.0552
ATAGGTCG	-0.125

Sequence	PBM E-score
GGGAAGAA	-0.0579
ATGCCCAT	-0.176
ACTGCACA	0.0876
CATCGTCG	-0.235
AGTCGCCA	-0.158
CTCTTAAG	-0.0209
ATCCCCGG	-0.307
CTTTGAGC	-0.16
CGAAGACC	-0.0641
ACTGCACT	0.0895
CGCAAAAC	0.227
ACGCCTTC	-0.0332
AGACCTCT	-0.154
ATAGGTAA	0.00072
CTTGAGAC	-0.0953
CATGACCG	-0.279
CACGAATG	0.027
AGTTAATA	0.199
AGACAGCT	0.0172
AGGGTGAT	-0.188
CGAATCGC	0.0424
CTCACCGC	-0.141
GCACCCGC	-0.0522
CATATATG	0.154
CGCAGGAC	-0.0401

Sequence	PBM E-score
CGCCAATC	0.0161
CAAACTCA	0.0383
ACCGTCAG	-0.00173
TAGGGCCA	-0.177
AAAAGTTG	0.0367
TAGGCTGA	-0.0419
ATTAGTTC	0.149
ACCTTTCC	-0.144
CCCACTCG	-0.151
CGAGGGGC	-0.323
CAAGGAAA	-0.186
ATCGGACG	-0.102
GGTGAAGA	-0.129
ACTAGCGG	0.0551
ATGCTCCC	-0.24
GTTTTCCA	0.0942
TAGAGTCA	-0.321
AATGTCAT	0.132
AAAAGACT	-0.141
GACGAGAC	-0.0636
CGCTCTAA	-0.0685
TATGTTAA	0.0579
GGCCCTGA	-0.0784
CGCGACTA	0.204
GTGACGGA	0.0478

7 entries drawn at random from those above:
Sequence	PBM E-score
ACCGGCGT	0.0885
ATAGGTCG	-0.125
GGTAGATA	0.16
CGCTCTAA	-0.0685
AACTAGGG	-0.119
AAGTGCCC	-0.108
GAACTACC	-0.0676

Next part:

Sequence	PBM E-score
CAGCCGGG	-0.0739
ATACAGCA	0.121
TACTTGGA	0.0975
GACCCTAA	-0.079
GAGTTTAA	0.181
CGTATTAC	0.108
CGCTTGAC	-0.129
ATTCAGGG	-0.0104
CGCATTGA	0.116
CGGATGAC	0.111
CTCTGAAC	-0.212
GCCAGGGC	-0.0916
AAGGACTA	-0.0534
CTCTGCCC	-0.17
AGCGGGCC	-0.0503
CGCCCTCC	-0.273
TACGGTGA	-0.00075
CACCAGGA	0.0973
CCGAACAA	0.107
AAGGTTGA	0.0462
CTCAGCAG	0.172
CGTTCACA	-0.0208
AATCTAGT	0.184
AGGGGGAA	-0.248
TCAGAAAA	-0.145

Sequence	PBM E-score
AAGGTCAC	-0.135
CCCCTCTA	-0.246
CCTGCTGA	0.245
AACTACAG	0.00279
GAGCAAGC	-0.00033
ACTTCTTC	-0.0312
CAAAGACA	0.143
ACGTCCTA	-0.062
GAACGCAC	0.0789
AGGATGCA	0.0173
ATCCGTTA	0.303
AGTAATCA	0.297
GAACCGGA	0.134
CGACCGAC	-0.0575
TGGGCGAA	-0.075
TATTCGGA	0.0942
TCTCAGCA	-0.127
ACAAATTG	0.202
ATATCCGG	0.162
CCTGGTTA	-0.0859
TGGCCACA	0.0946
GCTATCAC	0.0812
GTACGCGA	-0.0842
ATGCAGGG	0.0136
AAAGCTAA	0.0006

Sequence	PBM E-score
GGACCTGA	-0.108
CGATCGCA	0.169
AGGTCCGC	-0.0615
ACAAATAA	0.206
CGCTGGGC	-0.15
TACGCACA	0.141
CAGTCGGG	-0.16
CCACTCGC	0.0149
GCAATTAA	0.139
AAGGAGAG	-0.31
CTATACTA	0.0535
AGACCAAA	0.0474
CAAACATA	-0.173
ATGTTCGG	0.0439
ACGTGATC	0.14
GACCCCCA	-0.424
CCTCAACG	-0.122
ATCATTCC	-0.0418
CTACAAAC	-0.0457
ACCTAACT	0.171
AGGTGAAC	0.0258
GATGTGGA	0.0129
GAATCCGA	0.134
CTTCGTAC	-0.201
GGCTATAC	0.137

Sequence	PBM E-score
AACTTTTG	-0.0868
AATCTCGC	0.129
CAGCATTA	0.0931
AAGCACAA	-0.00896
CTAGCCAG	-0.161
ACGGCATA	0.16
ACCTTTTG	-0.244
CTCCAGTC	-0.135
AGTGAGGG	-0.21
CGGAAACG	-0.0175
TCGAGCCA	-0.0683
ATCCACTC	0.131
ATTAGCGC	0.142
ACCCGCCT	-0.189
AACAGTTG	-0.134
AAACGTAG	-0.0438
AAGGACTC	-0.212
GGACTAGA	-0.0933
ACGCGAAT	0.0579
TAAACGAA	0.145
ACATGTAT	0.204
CGCCCTCA	-0.168
CGCAAGCA	0.0451
AGATGACC	-0.0755
ATGAAGGC	0.0119

Sequence	PBM E-score
CTTAACCA	0.00801
ACCGCAGG	-0.0366
CATGTGAC	-0.0736
AACATAGA	-0.0589
AACTTCTT	-0.00507
TGACATAA	0.266
AAGGTAAA	0.0977
CGCGTCGC	0.13
ACCATTAT	-0.0874
AACAATCT	0.0393
AGAAGTGG	-0.177
TATTAACA	0.25
CACGATGG	-0.0616
AATGCGAG	0.0951
AGTCGGTG	-0.0753
GCACCTAA	0.0774
CACACCCC	-0.302
ACATACGT	-0.213
CTATTTCC	0.184
CAGACTGA	0.0467
CGCCTGAA	0.0643
GAATTTAC	0.184
ACAATGAC	-0.14
ATAGGTCA	0.0484
AGGGGGTG	-0.374

Sequence	PBM E-score
ACGGGAAA	0.00569
GACAAGGC	-0.0346
ACAGGCTG	-0.194
GCTCGAGC	0.189
AATAACTG	0.108
CCATATCC	-0.0374
AGGGCGAT	-0.132
CGTGCGAA	0.036
GCCTTCGC	-0.124
ACCCAAAA	-0.0031
CAAGGCAA	-0.0882
GGTACGTA	-0.0233
AGCAGACT	0.194
TATATACA	0.209
ACCCGGCG	-0.12
GCCCTACC	0.043
CCGCCGTC	0.117
ATGGAGCA	-0.0452
GTTCAAGA	0.0594
GCCTACCC	-0.112
ATCGGAAA	0.141
GCGGCATA	0.188
AACTCCTC	-0.267
CAGGCGAG	-0.123
AGGACATC	0.179

Sequence	PBM E-score
TACTTACA	-0.0122
TAATGAAA	0.238
ATGGTGGG	-0.171
CGCGCAGA	0.287
ACTGAGCG	-0.124
GGCGTGAA	-0.0289
CAGCGGCA	-0.0412
GCGTATCA	0.0932
AAGTCCAC	-0.195
AATCGGAC	0.0467
CCACTGTA	-0.0112
GAATTGAA	0.0547
CTAGCCTC	-0.195
ACCAGTGA	-0.00797
CGACTTGA	-0.0967
GGCTACAA	-0.0701
ACGAATGA	0.104
TGACAGCA	0.0838
ACGACGTG	0.0005
